Measurements reported in US20220064276A1.
No constants are given. Whether binding was seen depends on the method and setting. Some binding calls cover weakened binding; strength is not graded here.

By UniProt entry, the sequences of proteins in these tests, tags left out. Where a name states a change or a piece, a line headed by the entry shows the natural chain unless it says otherwise.
UniProt Q14766: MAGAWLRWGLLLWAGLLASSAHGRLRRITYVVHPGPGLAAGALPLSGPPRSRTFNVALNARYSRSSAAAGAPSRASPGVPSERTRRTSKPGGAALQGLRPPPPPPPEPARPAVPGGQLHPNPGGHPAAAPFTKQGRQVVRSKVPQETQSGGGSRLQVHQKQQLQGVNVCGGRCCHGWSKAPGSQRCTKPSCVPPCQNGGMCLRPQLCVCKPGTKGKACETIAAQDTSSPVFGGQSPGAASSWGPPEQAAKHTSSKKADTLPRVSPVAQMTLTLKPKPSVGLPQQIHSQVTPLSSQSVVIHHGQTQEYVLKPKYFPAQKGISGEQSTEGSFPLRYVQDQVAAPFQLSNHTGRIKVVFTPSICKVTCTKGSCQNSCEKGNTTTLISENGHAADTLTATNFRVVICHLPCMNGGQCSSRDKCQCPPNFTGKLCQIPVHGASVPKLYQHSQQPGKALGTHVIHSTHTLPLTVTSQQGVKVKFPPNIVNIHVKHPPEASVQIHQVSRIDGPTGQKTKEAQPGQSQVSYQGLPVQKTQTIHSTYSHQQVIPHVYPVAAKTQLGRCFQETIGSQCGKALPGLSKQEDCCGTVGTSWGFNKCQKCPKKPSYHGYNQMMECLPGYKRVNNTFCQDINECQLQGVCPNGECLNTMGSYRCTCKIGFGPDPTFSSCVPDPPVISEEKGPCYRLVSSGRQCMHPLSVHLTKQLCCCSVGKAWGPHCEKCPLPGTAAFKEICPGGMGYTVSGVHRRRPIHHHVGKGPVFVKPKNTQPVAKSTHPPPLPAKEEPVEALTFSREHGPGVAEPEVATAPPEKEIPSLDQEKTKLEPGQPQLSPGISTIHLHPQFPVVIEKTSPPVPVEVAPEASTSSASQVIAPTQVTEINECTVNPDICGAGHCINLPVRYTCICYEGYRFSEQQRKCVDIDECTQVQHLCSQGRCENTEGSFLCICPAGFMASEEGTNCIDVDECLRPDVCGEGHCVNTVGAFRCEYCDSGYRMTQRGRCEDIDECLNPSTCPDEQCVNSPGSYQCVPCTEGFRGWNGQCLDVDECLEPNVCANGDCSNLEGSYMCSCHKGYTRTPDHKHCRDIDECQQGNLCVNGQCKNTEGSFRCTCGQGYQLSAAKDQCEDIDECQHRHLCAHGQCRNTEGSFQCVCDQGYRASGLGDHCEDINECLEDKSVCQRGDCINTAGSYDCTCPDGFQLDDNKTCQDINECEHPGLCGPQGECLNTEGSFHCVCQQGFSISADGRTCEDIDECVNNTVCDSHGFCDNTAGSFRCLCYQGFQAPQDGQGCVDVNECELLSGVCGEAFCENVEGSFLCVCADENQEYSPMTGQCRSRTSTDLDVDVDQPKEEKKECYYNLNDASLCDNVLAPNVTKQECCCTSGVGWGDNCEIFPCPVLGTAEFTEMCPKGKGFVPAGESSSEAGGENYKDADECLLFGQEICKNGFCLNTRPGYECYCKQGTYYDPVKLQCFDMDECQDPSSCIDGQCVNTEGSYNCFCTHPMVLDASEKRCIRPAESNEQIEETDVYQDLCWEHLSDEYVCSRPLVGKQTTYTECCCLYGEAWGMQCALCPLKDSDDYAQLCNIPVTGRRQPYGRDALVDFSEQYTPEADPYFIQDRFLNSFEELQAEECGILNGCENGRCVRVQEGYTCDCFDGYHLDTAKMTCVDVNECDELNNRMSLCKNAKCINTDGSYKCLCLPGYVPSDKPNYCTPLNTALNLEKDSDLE
UniProt Q9NS15: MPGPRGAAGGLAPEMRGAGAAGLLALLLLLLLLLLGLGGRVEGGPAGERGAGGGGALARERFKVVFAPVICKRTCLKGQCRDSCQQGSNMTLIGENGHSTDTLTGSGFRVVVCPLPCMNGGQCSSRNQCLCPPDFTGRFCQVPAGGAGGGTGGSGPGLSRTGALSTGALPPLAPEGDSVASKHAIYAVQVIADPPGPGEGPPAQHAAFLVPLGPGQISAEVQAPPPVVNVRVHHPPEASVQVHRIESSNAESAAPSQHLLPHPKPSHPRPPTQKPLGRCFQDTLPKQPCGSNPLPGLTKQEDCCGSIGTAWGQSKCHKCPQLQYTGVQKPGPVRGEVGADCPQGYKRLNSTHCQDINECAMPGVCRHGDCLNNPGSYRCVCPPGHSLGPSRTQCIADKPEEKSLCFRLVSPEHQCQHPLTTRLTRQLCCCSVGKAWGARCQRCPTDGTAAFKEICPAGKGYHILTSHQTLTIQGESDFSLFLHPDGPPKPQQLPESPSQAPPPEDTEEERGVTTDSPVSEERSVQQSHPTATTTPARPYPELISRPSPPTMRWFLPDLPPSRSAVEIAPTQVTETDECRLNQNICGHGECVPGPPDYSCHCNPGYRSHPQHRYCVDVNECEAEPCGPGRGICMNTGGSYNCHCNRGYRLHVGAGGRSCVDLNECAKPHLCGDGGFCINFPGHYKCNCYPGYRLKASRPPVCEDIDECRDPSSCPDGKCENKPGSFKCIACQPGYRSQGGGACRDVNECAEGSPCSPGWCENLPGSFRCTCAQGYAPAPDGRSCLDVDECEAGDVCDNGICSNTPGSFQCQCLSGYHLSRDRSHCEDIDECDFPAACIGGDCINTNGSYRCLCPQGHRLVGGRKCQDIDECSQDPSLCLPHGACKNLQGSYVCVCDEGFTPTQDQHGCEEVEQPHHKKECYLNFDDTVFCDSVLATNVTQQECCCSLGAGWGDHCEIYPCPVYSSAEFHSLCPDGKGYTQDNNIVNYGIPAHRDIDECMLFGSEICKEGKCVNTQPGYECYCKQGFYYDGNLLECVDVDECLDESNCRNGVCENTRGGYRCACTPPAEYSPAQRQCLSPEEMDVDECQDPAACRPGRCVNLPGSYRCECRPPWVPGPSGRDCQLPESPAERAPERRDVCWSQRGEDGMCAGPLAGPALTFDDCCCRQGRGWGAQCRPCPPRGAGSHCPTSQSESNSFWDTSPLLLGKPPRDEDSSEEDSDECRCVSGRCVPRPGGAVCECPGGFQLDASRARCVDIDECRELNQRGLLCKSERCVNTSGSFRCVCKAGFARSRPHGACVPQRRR
UniProt Q8CG19: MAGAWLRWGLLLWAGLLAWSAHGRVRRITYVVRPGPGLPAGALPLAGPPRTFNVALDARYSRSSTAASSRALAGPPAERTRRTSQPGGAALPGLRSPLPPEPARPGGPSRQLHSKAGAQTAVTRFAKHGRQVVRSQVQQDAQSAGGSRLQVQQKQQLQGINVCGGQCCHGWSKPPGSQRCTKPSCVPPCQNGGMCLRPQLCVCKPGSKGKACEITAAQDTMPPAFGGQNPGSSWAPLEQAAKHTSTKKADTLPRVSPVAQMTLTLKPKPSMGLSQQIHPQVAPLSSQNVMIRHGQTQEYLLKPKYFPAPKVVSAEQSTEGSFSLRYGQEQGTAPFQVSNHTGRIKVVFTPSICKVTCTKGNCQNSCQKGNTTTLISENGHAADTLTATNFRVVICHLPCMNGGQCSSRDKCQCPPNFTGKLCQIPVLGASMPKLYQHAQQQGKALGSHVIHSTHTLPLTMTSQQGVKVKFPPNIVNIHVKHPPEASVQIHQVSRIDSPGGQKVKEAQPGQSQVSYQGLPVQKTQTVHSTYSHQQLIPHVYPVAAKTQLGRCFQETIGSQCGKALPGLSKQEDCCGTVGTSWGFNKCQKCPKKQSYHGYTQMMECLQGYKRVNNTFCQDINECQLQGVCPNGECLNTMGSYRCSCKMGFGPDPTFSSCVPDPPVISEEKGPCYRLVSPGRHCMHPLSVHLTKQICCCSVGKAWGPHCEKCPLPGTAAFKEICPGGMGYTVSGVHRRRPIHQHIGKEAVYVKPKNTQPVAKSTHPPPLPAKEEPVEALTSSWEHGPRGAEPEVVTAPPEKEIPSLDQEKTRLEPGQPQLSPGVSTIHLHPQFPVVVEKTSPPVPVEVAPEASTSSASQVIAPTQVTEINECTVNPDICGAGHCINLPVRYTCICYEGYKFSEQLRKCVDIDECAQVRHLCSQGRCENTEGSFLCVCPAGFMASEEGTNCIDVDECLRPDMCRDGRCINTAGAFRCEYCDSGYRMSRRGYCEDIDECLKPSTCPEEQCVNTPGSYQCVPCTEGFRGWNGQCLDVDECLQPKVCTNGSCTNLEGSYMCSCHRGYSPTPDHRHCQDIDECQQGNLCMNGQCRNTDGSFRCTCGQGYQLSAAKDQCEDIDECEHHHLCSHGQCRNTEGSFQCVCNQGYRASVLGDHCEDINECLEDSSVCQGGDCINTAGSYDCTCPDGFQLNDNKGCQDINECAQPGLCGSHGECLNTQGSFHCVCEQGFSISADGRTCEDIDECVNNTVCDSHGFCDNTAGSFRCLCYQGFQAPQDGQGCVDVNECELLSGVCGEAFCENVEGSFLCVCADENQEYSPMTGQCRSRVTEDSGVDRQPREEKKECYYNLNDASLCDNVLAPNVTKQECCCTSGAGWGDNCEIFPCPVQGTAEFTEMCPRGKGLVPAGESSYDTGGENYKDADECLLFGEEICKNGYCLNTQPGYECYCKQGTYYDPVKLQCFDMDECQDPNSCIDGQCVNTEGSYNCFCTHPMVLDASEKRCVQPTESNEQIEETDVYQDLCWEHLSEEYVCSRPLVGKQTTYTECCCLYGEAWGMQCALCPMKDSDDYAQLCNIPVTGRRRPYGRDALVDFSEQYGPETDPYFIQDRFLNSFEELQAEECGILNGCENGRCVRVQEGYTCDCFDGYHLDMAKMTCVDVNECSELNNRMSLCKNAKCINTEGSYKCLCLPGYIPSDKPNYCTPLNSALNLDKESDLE

Legend:
[1] = biological target: human LTBP1-proTGFβ1 complex (human) (UniProt Q14766); test: ELISA (FIG. 9)
[2] = biological target: human LTBP3-proTGFβ1 complex (human) (UniProt Q9NS15); test: ELISA (FIG. 9)
[3] = biological target: human LTBP1-proTGFβ1 complex (human) (UniProt Q14766); test: ELISA (FIG. 7A)
[4] = biological target: human LTBP1-proTGFβ1 complex (human) (UniProt Q14766); test: Octet BLI (FIG. 11)
[5] = biological target: human LTBP1-proTGFβ1 complex (human) (UniProt Q14766); test: FIG. 2B binding assay
[6] = biological target: mouse LTBP1-proTGFβ1 complex (mouse) (UniProt Q8CG19); test: FIG. 2B binding assay
[7] = biological target: human LTBP1-proTGFβ1 complex (human) (UniProt Q14766); test: ELISA, biotinylated antigen on NeutrAvidin
[8] = biological target: human LTBP1-proTGFβ1 complex (human) (UniProt Q14766); test: ELISA on immobilised antigen (Example 4), RLU, mean ± SD
[9] = biological target: human LTBP3-proTGFβ1 complex (human) (UniProt Q9NS15); test: as above
[10] = biological target: mouse LTBP1-proTGFβ1 complex (mouse) (UniProt Q8CG19); test: as above
[11] = biological target: human LTBP1-proTGFβ1 complex (human) (UniProt Q14766); test: ELISA vs. recombinant proTGFβ1 protein complexes, relative binding (RLU)
[12] = biological target: human LTBP3-proTGFβ1 complex (human) (UniProt Q9NS15); test: as above

binding [1]: binds | binding [2]: binds | binding [3]: binds | binding [4]: binds | binding [5]: binds | binding [6]: binds | binding [7]: binds | binding [8]: binds | binding [9]: binds | binding [10]: binds | binding [11]: binds | binding [12]: binds
B1: SR-AB2 (antibody, V domains shown)
VH: QVQLVQSGAEVKKPGASVKVSCKASGYTFTSYGISWVRQAPGQGLEWMGWISAYNGNTNYAQKLQGRVTMTTDTSTSTAYMELRSLRSDDTAVYYCARAPLGNFDSWGQGTMVTVSS
VL: NFMLTQPHSVSESPGKTVTISCTRSSGSIASNYVQWYQQRPGSSPTTVIYEDNQRPSGVPDRFSGSIDSSSNSASLTISGLKTEDEADYYCQSYDSSNHPVVFGGGTKLTVL
